PubChem BioAssay AID1053208, Peter MacCallum Cancer Centre | 2014
In all, the deposit lists about 17,000 reagents; shown is an unselected part. 788 of them (4.7%) count as active. 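Calls rest on z-score classes alone; an extra cut-off of viability at most 70% of control was not applied to them.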 Further read-outs or replicates are left out here. No sequences are given here.

Assay: 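Genes whose silencing cuts survival of bone tumour cells only with doxorubicin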 (primary screen)
Cells: mouse osteosarcoma cells, early-passage culture from an engineered mouse model of fibroblastic bone tumour
Knock-down reagent: siRNA pool against mouse genes, 40 nM
Time to read-out: about 120 h (48 h before drug, then 72 h with drug)
Conditions: doxorubicin 100 nM for 72 h, roughly 30-40% inhibitory dose
Read-out: 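Luminescent ATP signal taken as viability with or without 100 nM doxorubicin for 72 h; mean of two wells set against non-targeting siRNA and turned into robust z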
Reading the numbers: viability z-score with doxorubicin: higher = more viable cells under doxorubicin; viability z-score without drug: higher = more viable cells with knock-down alone
Rule for the call: 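Called active if knock-down leaves viability unchanged without drug (z within -2 to 2) but lowers it with doxorubicin (z at or under -2)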

U2af2 (GeneID 22185) | combined z-score class = low cell count with and without drug; viability z-score with doxorubicin = -5.17; viability z-score without drug = -3.04; call = inactive
Prf1 (GeneID 18646) | combined z-score class = no change with or without drug; viability z-score with doxorubicin = 1.35; viability z-score without drug = 0.17; call = inactive
Lrrc59 (GeneID 98238) | combined z-score class = no change with or without drug; viability z-score with doxorubicin = 0.22; viability z-score without drug = -0.17; call = inactive
Or4k35 (GeneID 258391) | combined z-score class = no change with or without drug; viability z-score with doxorubicin = -0.34; viability z-score without drug = -0.51; call = inactive
Slc16a13 (GeneID 69309) | combined z-score class = no change with or without drug; viability z-score with doxorubicin = 0.67; viability z-score without drug = 0.51; call = inactive
Ube2b (GeneID 22210) | combined z-score class = no change with or without drug; viability z-score with doxorubicin = -1.12; viability z-score without drug = -0.17; call = inactive
Gpr149 (GeneID 229357) | combined z-score class = no change with or without drug; viability z-score with doxorubicin = 0.34; viability z-score without drug = 0.51; call = inactive
Dnajb2 (GeneID 56812) | combined z-score class = no change with or without drug; viability z-score with doxorubicin = 0.67; viability z-score without drug = 0; call = inactive
C8b (GeneID 110382) | combined z-score class = no change with or without drug; viability z-score with doxorubicin = -0.22; viability z-score without drug = 0.17; call = inactive
Rimkla (GeneID 194237) | combined z-score class = no change with or without drug; viability z-score with doxorubicin = 0.11; viability z-score without drug = 0.51; call = inactive
Hsfy2 (GeneID 71066) | combined z-score class = no change with or without drug; viability z-score with doxorubicin = -1.24; viability z-score without drug = -0.84; call = inactive
Dmrtc2 (GeneID 71241) | combined z-score class = no change with or without drug; viability z-score with doxorubicin = -0.22; viability z-score without drug = 0.84; call = inactive
Retnlg (GeneID 245195) | combined z-score class = no change with or without drug; viability z-score with doxorubicin = -0.79; viability z-score without drug = -0.17; call = inactive
Rasa1 (GeneID 218397) | combined z-score class = no change with or without drug; viability z-score with doxorubicin = 0.22; viability z-score without drug = 0.17; call = inactive
Defb19 (GeneID 246700) | combined z-score class = no change with or without drug; viability z-score with doxorubicin = 0; viability z-score without drug = 0.34; call = inactive
Hspa12a (GeneID 73442) | combined z-score class = no change with or without drug; viability z-score with doxorubicin = 0.56; viability z-score without drug = -0.17; call = inactive
Polr1h (GeneID 66136) | combined z-score class = no change with or without drug; viability z-score with doxorubicin = -0.67; viability z-score without drug = -0.17; call = inactive
Zfp157 (GeneID 72154) | combined z-score class = no change with or without drug; viability z-score with doxorubicin = 0.56; viability z-score without drug = -0.17; call = inactive
Gldn (GeneID 235379) | combined z-score class = no change with or without drug; viability z-score with doxorubicin = 1.69; viability z-score without drug = 0.51; call = inactive

Records listed so far whose target name starts with U or u (2):
U2af2 (GeneID 22185) | combined z-score class = low cell count with and without drug; viability z-score with doxorubicin = -5.17; viability z-score without drug = -3.04; call = inactive
Ube2b (GeneID 22210) | combined z-score class = no change with or without drug; viability z-score with doxorubicin = -1.12; viability z-score without drug = -0.17; call = inactive
